From patent US10213445B2, “Compositions and methods of diazeniumdiolate-based prodrugs for treating cancer” (ARIZONA BOARD OF REGENTS ON BEHALF OF THE UNIVERSITY OF …, priority 2014, dated 2019)

Experiments:
[1] = NO release measured with NO specific electrode; type: physicochemical; conditions: 2% serum
[2] = Chemiluminescence detection of HNO in 1 mM ferricyanide solution; type: physicochemical
metmyoglobin (metMb) = test: Reductive nitrosylation of metmyoglobin (HNO trapping); parameters: species or system horse; conditions: 100 μM compound, 50 μM metMb, deaerated; for yield of MbNO from metMb: out of a possible 50 μM, PBS pH 7.4, 37° C.; for effect of GSH on reductive nitrosylation of metMb / formation of MbNO: 250 μM GSH
[3] = NO quantified by chemiluminescence on hydrolysis; type: physicochemical; conditions: neutral pH

Row | SMILES | [NO]pA ([1]; +Ferricyanide (1 mM)) [pA] | [NO]pA ([1]; without ferricyanide) [pA] | NO and HNO release [2] | yield of MbNO from metMb (metmyoglobin (metMb)) | effect of GSH on reductive nitrosylation of metMb / formation of MbNO (metmyoglobin (metMb)) | species produced on spontaneous hydrolysis [3]
1 | CCN(CC)[N+]([O-])=NOCOC(=O)c1ccccc1OC(C)=O [DEA/NO-aspirin, O2-(Acetylsalicyloyloxymethyl)-1-(N,N-Diethylamino)-diazen-1-ium-1,2-diolate] | 5000 | 4600 | shows NO release |  |  | 
2 | CC(=O)Oc1ccccc1C(=O)OCON=[N+]([O-])NC(C)C [IPA/NO-aspirin, O2-(Acetylsalicyloyloxymethyl)-1-(N-isopropylamino)-diazen-1-ium-1,2-diolate] | 2100 | 1000 | showed both NO and HNO release |  |  | 
3 | CC(=O)OCO/N=[N+](\[O-])NC(C)C [Compound 2, O^2-(acetoxymethyl)1-(isopropylamino)diazen-1-ium-1,2-diolate] |  |  |  | ~47 µM | inhibited | 
4 | CC(C)N[N+]([O-])=N[O-].[Na+] [Compound 1, O^2-Sodium 1-(N-Isopropylamino)diazen-1-ium-1,2-diolate, reference compound] |  |  |  | approximately 25 μM | enhanced | produced both NO and HNO
